The assay has as its target T1, chicken Fos (pCAG-Fos-HA) (chicken) (UniProt P11939).
T1 sequence: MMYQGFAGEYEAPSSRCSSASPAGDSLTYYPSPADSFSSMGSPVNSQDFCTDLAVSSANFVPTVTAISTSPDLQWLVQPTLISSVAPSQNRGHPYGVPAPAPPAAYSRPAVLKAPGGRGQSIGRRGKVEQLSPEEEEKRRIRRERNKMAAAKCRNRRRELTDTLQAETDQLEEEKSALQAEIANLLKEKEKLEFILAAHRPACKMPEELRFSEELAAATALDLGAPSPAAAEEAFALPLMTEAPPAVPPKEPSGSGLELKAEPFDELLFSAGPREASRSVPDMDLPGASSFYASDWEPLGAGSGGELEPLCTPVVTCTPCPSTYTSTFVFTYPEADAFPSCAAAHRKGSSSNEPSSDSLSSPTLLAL
The assay can be described thus: co-IP; p53 and Fos expression vectors co-transfected into LMH cells, with or without ILTV infection (MOI = 1, 9 hpi); IP-grade RIPA lysis; precleared lysate incubated overnight with anti-HA or anti-Flag antibody, protein A/G agarose; isotype control antibody; Western blot. A general note: Immunoblotting shows a protein as a band on a membrane.

Chains of the proteins cited; added tags and fusions are not shown. Lines headed by an entry give the natural chain unless they say otherwise; changes in a name come on top.
UniProt P10360: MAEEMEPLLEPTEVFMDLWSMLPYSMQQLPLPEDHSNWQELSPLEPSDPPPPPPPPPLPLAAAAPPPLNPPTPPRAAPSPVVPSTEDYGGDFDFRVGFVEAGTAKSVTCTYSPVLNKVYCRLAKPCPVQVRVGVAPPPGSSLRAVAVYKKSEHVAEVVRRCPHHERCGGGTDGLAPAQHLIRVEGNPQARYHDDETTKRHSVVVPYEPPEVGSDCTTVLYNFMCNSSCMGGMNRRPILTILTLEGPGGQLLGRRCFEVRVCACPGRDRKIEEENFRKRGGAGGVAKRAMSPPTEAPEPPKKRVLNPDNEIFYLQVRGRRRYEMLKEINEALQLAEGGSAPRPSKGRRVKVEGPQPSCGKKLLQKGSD

These are yes or no findings as the source states them, for the method shown. Binding seen in cells or lysates may run through a third protein. A result given as binding can be weak or reduced; the word gives no strength. Tags and fused reporters may be left off the sequences shown.

As to “p53 mutant protein pm1 (p53-R160H, pCAG-pm1-Flag) (from UniProt P10360)”, the binding entry is “binds”.

Values taken from publication PMC11510328.
